Taken from: PubChem BioAssay AID1259254 (NCATS, 2017)

- Test: 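Finding genes that stop cells copying their DNA twice in one cycle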 (primary screen)
- System: human HCT116 colorectal cancer cells
- Reagents: single siRNA against human genes
- Time to read-out: 3 days
- Measured: 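Nuclei stained with Hoechst and imaged; cell-cycle phase assigned by DNA content; G2 share scaled per plate, non-targeting siRNA 0%, GMNN siRNA 100%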
- Reading the numbers: G2 robust z-score and G2 cells, % of GMNN control: higher = more G2 cells, more excess DNA replication; raw share of cells in G2: higher = larger share of cells with G2 DNA content
- Rule for the call: 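An siRNA counts as active if its G2 robust z-score lies at least 5 MADs above the screen median; here such calls match roughly 38% of GMNN control or more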
In all, the deposit lists about 59,000 reagents; shown is a part drawn at random. Of all reagents, about 1,550 (2.6%) are marked active. 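G2 share is only a proxy for re-replication; each gene was hit by three separate siRNAs, and active genes were retested.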 Raw values vary from plate to plate and are shown uncorrected. Reagents against one gene are numbered here. Reagent sequences are not shown. Not given: the amount of reagent.

Target gene | siRNA no. | G2 robust z-score | G2 cells, % of GMNN control | raw share of cells in G2 (%) | activity call
LINC01348 (long independently transcribed non-coding RNA 1348) | 1 | -0.623 | -1.41 | 2.97 | inactive
LINC01348 (long independently transcribed non-coding RNA 1348) | 2 | -0.606 | -1.3 | 3.16 | inactive
LINC01348 (long independently transcribed non-coding RNA 1348) | 3 | -0.833 | -2.9 | 2.31 | inactive
VANGL1 (VANGL planar cell polarity protein 1) | 1 | 2.16 | 18.1 | 10.1 | inactive
VANGL1 (VANGL planar cell polarity protein 1) | 2 | 0.563 | 6.93 | 5.51 | inactive
VANGL1 (VANGL planar cell polarity protein 1) | 3 | -1.03 | -4.27 | 1.11 | inactive
NCOA6 (nuclear receptor coactivator 6) | 1 | -0.835 | -2.91 | 2.87 | inactive
NCOA6 (nuclear receptor coactivator 6) | 2 | 6.12 | 46.1 | 19.6 | active
NCOA6 (nuclear receptor coactivator 6) | 3 | -0.769 | -2.45 | 5.39 | inactive
RAMP3 (receptor activity modifying protein 3) | 1 | -1.09 | -4.73 | 3.64 | inactive
RAMP3 (receptor activity modifying protein 3) | 2 | -1.6 | -8.32 | 3.2 | inactive
RAMP3 (receptor activity modifying protein 3) | 3 | 6.51 | 48.8 | 19.6 | active
SERTAD2 (SERTA domain containing 2) | 1 | -0.806 | -2.7 | 2.63 | inactive
SERTAD2 (SERTA domain containing 2) | 2 | -0.64 | -1.53 | 5.3 | inactive
SERTAD2 (SERTA domain containing 2) | 3 | -0.682 | -1.83 | 2.57 | inactive
PAGE5 (PAGE family member 5) | 1 | 0.402 | 5.8 | 6.54 | inactive
PAGE5 (PAGE family member 5) | 2 | 3.39 | 26.8 | 11.4 | inactive
PAGE5 (PAGE family member 5) | 3 | 0.0314 | 3.19 | 3.94 | inactive
CDK1 (cyclin dependent kinase 1) | 1 | 4.49 | 34.5 | 17 | inactive
CDK1 (cyclin dependent kinase 1) | 2 | 4.08 | 31.7 | 16.1 | inactive
CDK1 (cyclin dependent kinase 1) | 3 | 1.49 | 13.4 | 8.75 | inactive
DLD (dihydrolipoamide dehydrogenase) | 1 | 2.93 | 23.6 | 13.4 | inactive
DLD (dihydrolipoamide dehydrogenase) | 2 | 0.0227 | 3.13 | 5.17 | inactive
DLD (dihydrolipoamide dehydrogenase) | 3 | -0.776 | -2.49 | 4.08 | inactive
SERPINA9 (serpin family A member 9) | 1 | 1.33 | 12.3 | 11.2 | inactive
SERPINA9 (serpin family A member 9) | 2 | -0.141 | 1.98 | 5.73 | inactive
SERPINA9 (serpin family A member 9) | 3 | 0.475 | 6.31 | 6.59 | inactive
ARL2 (ARF like GTPase 2) | 1 | 0.955 | 9.69 | 8.52 | inactive
ARL2 (ARF like GTPase 2) | 2 | -0.332 | 0.629 | 4.23 | inactive
ARL2 (ARF like GTPase 2) | 3 | 5.68 | 43 | 19.3 | active

Reagents above with an active call (3):
Target gene | siRNA no. | G2 robust z-score | G2 cells, % of GMNN control | raw share of cells in G2 (%) | activity call
NCOA6 (nuclear receptor coactivator 6) | 2 | 6.12 | 46.1 | 19.6 | active
RAMP3 (receptor activity modifying protein 3) | 3 | 6.51 | 48.8 | 19.6 | active
ARL2 (ARF like GTPase 2) | 3 | 5.68 | 43 | 19.3 | active
